Data from US7018810.
No constants are given. Whether binding was seen depends on the method and setting. In cells and extracts the contact can be indirect. Some binding calls cover weakened binding; strength is not graded here. Where a sequence is shown, tags or fusion partners need not be part of it. Values belong to the binder of their own block, whether it stands above or below them.

Assays:
[1] = target: T1, human BMP4 protein (R&D Systems) (human) (UniProt P12644); assay: co-immunoprecipitation on anti-FLAG M2 agarose, Western blot with anti-BMP 2/4 antibody
T1 sequence (looked up): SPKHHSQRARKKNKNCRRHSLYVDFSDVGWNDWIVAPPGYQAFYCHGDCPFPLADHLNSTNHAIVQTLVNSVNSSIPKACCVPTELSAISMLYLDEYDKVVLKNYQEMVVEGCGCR

[2] = target: T1, human BMP4 protein (R&D Systems) (human); assay: co-immunoprecipitation on anti-FLAG M2 agarose ('IP with anti-flag Ab'), reducing SDS-PAGE, Western blot with anti-BMP 2/4 goat polyclonal antibody

binding [1]: binds | binding [2]: binds
B1: murine CHD-FLAG protein (mature form) (protein)
chain: TGPEPPALPIRSEKEPLPVRGAAGCSFGGKVYALDETWHPDLGEPFGVMRCVLCACEAPQWARRGRGPGRVSCKNIKPQCPTLACRQPRQLPGHCCQTCPQERSNLDPQPAGLVFEYPRDPEHRSYSDRGEPGVGERTRADGHTDFVALLTGPRSQAVARARVSLLRSSLRFSVSYQRLDRPSRVRFTDPTGNILFEHPATPTQDGLVCGVWRAVPRLSVRLLRAEQLRVALVTSTHPSGEVWGPLIWQGALAAETFSAILTLEDPLQRGVGGIALLTLSDTEDSLHFLLLFRGLLGGLAQAPLKLQILHQGQLLRELQANTSAQEPGFAEVLPSLTDQEMDWLELGELQMVLEKAGGPELRISGYITTRQSCDVLQSVLCGADALIPVQTGAAGSASFILLGNGSLIYQVQVVGTGSEVVAMTLETKPQRKNQRTVLCHMAGLQPGGHMAVGMCSGLGARGAHMLLQNELFLNVGTKDFPDGELRGHVTALCYSGHSARYDRLPVPLAGALVLPPVRSQAAGHAWLSLDTHCHLHYEVLLAGLGGSEQGTVTAHLLGPPGMPGPQRLLKGFYGSEAQGVVKDLEPVLLRHLAQGTASLLITTKSSPRGELRGQVHIASQCEAGGLRLASEGVQMPLAPNGEAATSPMLPAGPGPEAPVPAKHGSPGRPRDPNTCFFEGQQRPHGARWAPNYDPLCSLCICQRRTVICDPVVCPPPSCPHPVQALDQCCPVCPEKQRSRDLPSLPNLEPGEGCYFDGDRSWRAAGTRWHPVVPPFGLIKCAVCTCKGATGEVHCEKVQCPRLACAQPVRANPTDCCKQCPVGSGTNAKLGDPMQADGPRGCRFAGQWFPENQSWHPSVPPFGEMSCITCRCGAGVPHCERDDCSPPLSCGSGKESRCCSHCTAQRSSETRTLPELEKEAEHSVDGSGTDYKDDDDK

binding [1]: binds | binding [2]: binds
B2: murine CHL-FLAG polypeptide (mature form) (protein)
chain: EQVKHSDTYCVFQDKKYRVGEKWHPYLEPYGLVYCVNCICSENGNVLCSRVRCPSLHCLSPVHIPHLCCPRCPDSLPPVNNKVTSKSCEYNGTTYQHGELFIAEGLFQNRQPNQCSQCSCSEGNVYCGLKTCPKLTCAFPVSVPDSCCRVCRGDAELSWEHADGDIFRQPANREARHSYLRSPYDPPPNRQAGGLPRFPGSRSHRGAVIDSQQASGTIVQIVINNKHKHGQVCVSNGKTYSHGESWHPNLRAFGIVECVLCTCNVTKQECKKIHCPNRYPCKYPQKIDGKCCKVCPGKKAKGALAGGPAFGGSGTDYKDDDDK
